Reference: US11858934B1, “Substituted pyrido[4′,3′:5,6]pyrimido[1,2-a]indoles as CK2 inhibitors” (KING FAISAL UNIVERSITY, priority 2023, dated 2024)

Experiments:
Format in all cases: cell-based
[1] = test system: MIAPaCa-2 (pancreas); experiment: MTT in vitro cytotoxic activity assay, MIAPaCa-2; details: Homo sapiens, MIA PaCa-2; MIAPaCa-2 (pancreas) cells, exposed for 96 hours; read-out: IC50, 50% inhibition of cell proliferation
Method: (§1) Compounds 1-12 were screened for their in vitro cytotoxic activity utilizing a 3-(4,5-dimethyl-thiazol-2-yl)-2,5-diphenyltetrazolium bromide (MTT) assay against selected cancer human cell lines consisting of PC3 (prostate), HCT116 (colon), A375 (melanoma), H1299 (lung), MIAPaCa-2 (pancreas), HL60 (leukemia), MCF7 (breast), MDA-MB-231 (breast) (T. Mosmann, J. Immunol. Meth., 1983, 65, 55-63). The cells were cultured at 37° C. in RMPI1640 medium supplemented with 10% fetal bovine serum, 50 IU/mL penicillin, and 50 μg/mL streptomycin in a 5% CO2 incubator. All cells were sub-cultured 3 times/week by trypsinisation. Viable cells were seeded and allowed to adhere for 12 h before a test drug was added in 96-well plates at an initial density of 1.0×10^5 cells/mL. Tumour cell lines were separately exposed to various concentrations of the tested compounds followed by incubation at a temperature of 37° C. during 96 h inside a medium of fresh RMPI 1640. Cells were subsequently incubated at 37° C. using MTT at 0.5 mg/mL during 4 h. After removal of supernatant, formazan crystals were dissolved in isopropanol and the optical density was measured at 570 nm. CX-4945 was used as a positive control.

[2] = test system: H1299 (lung); experiment: MTT in vitro cytotoxic activity assay, H1299; details: Homo sapiens, NCI-H1299; H1299 (lung) cells, exposed for 96 hours; read-out: IC50, 50% inhibition of cell proliferation
Method: as §1

[3] = test system: A375 (melanoma); experiment: MTT in vitro cytotoxic activity assay, A375; details: Homo sapiens, A-375; A375 (melanoma) cells, exposed for 96 hours; read-out: IC50, 50% inhibition of cell proliferation
Method: as §1

[4] = test system: PC3 (prostate); experiment: MTT in vitro cytotoxic activity assay, PC3; details: Homo sapiens, Prostate cell; PC3 (prostate) cells, exposed for 96 hours; read-out: IC50, 50% inhibition of cell proliferation
Method: as §1

[5] = test system: HL60 (leukemia); experiment: MTT in vitro cytotoxic activity assay, HL60; details: Homo sapiens, HL-60; HL60 (leukemia) cells, exposed for 96 hours; read-out: IC50, 50% inhibition of cell proliferation
Method: as §1

[6] = test system: MCF7 (breast); experiment: MTT in vitro cytotoxic activity assay, MCF7; details: Homo sapiens; MCF7 (breast) cells, exposed for 96 hours; read-out: IC50, 50% inhibition of cell proliferation
Method: as §1

[7] = test system: MDA-MB-231 (breast); experiment: MTT in vitro cytotoxic activity assay, MDA-MB-231; details: Homo sapiens; MDA-MB-231 (breast) cells, exposed for 96 hours; read-out: IC50, 50% inhibition of cell proliferation
Method: as §1

[8] = test system: HCT116 (colon); experiment: MTT in vitro cytotoxic activity assay, HCT116; details: Homo sapiens, HCT-116; HCT116 (colon) cells, exposed for 96 hours; read-out: IC50, 50% inhibition of cell proliferation
Method: as §1

Compound `O=C(O)c1ccc2c(c1)nc(Nc1cccc(Cl)c1)c1ccncc12` [CX-4945, reference compound] has an IC50 [1] of 1000 nM, an IC50 [2] of 2300 nM and an IC50 [3] of 4100 nM. The IC50 [4] was 2000 nM, the IC50 [5] was 3700 nM and the IC50 [6] was 9100 nM. For the same compound, the IC50 [7] was 6200 nM and the IC50 [8] was 2300 nM.
